Reference: publication PMC5727390
Construct, isoform or probe ends are uncertain for at least one entry. Weaker means in comparison with the reference protein, sequence or condition of that experiment.

The chains behind the UniProt entries cited, without tags or fusion partners. Residues count along the entry.
UniProt P40763, 127-722: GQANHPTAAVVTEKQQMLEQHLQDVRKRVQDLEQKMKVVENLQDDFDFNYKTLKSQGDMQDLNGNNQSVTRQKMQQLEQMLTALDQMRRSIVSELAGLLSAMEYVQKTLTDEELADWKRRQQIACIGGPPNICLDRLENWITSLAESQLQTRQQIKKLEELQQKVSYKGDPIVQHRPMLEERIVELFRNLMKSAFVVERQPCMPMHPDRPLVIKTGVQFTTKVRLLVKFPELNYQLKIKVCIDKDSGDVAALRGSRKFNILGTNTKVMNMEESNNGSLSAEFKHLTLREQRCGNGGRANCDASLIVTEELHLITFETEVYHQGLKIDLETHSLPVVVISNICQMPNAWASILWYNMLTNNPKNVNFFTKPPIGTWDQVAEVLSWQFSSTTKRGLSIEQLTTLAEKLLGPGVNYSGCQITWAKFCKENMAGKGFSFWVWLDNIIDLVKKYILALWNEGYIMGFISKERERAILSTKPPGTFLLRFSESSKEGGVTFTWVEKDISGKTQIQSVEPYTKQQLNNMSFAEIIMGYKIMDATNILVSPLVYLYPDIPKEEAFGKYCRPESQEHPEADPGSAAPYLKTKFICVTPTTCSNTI

Molecular target: STAT3 (UniProt P40763)
Test: EMSA
Conditions: NSC-370284 (concentration not in text), binding almost completely blocked; Signosis EMSA Assay Kit, manufacturer's protocol with minor modifications; pH and temperature not stated; label: 5' biotin on both strands

CCGGTAGGCGTCCTCCGCGACCCGC (double strand) [TET1-CPG probe]
binding result: binds more weakly
